We go through one molecule from paper PMC3599175.

Amino acid sequences for entries named in this document (tags omitted). Residues count along the entry.
UniProt P15127, residues 764-1383: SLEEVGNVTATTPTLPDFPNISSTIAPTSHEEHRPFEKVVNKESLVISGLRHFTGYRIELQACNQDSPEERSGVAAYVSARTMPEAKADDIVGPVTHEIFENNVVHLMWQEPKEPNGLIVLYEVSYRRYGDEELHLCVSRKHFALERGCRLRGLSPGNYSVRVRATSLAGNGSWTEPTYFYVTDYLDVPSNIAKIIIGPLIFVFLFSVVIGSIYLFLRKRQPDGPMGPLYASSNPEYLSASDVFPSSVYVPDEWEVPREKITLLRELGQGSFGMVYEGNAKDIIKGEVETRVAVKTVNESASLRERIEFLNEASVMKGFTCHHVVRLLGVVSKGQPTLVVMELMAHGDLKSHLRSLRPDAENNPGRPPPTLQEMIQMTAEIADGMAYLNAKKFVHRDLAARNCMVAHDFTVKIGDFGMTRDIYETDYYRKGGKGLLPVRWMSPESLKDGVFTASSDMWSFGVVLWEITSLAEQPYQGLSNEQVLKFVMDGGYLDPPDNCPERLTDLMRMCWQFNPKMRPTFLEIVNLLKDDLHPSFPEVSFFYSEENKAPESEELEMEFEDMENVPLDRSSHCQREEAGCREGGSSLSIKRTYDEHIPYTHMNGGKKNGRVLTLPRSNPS
UniProt P35570: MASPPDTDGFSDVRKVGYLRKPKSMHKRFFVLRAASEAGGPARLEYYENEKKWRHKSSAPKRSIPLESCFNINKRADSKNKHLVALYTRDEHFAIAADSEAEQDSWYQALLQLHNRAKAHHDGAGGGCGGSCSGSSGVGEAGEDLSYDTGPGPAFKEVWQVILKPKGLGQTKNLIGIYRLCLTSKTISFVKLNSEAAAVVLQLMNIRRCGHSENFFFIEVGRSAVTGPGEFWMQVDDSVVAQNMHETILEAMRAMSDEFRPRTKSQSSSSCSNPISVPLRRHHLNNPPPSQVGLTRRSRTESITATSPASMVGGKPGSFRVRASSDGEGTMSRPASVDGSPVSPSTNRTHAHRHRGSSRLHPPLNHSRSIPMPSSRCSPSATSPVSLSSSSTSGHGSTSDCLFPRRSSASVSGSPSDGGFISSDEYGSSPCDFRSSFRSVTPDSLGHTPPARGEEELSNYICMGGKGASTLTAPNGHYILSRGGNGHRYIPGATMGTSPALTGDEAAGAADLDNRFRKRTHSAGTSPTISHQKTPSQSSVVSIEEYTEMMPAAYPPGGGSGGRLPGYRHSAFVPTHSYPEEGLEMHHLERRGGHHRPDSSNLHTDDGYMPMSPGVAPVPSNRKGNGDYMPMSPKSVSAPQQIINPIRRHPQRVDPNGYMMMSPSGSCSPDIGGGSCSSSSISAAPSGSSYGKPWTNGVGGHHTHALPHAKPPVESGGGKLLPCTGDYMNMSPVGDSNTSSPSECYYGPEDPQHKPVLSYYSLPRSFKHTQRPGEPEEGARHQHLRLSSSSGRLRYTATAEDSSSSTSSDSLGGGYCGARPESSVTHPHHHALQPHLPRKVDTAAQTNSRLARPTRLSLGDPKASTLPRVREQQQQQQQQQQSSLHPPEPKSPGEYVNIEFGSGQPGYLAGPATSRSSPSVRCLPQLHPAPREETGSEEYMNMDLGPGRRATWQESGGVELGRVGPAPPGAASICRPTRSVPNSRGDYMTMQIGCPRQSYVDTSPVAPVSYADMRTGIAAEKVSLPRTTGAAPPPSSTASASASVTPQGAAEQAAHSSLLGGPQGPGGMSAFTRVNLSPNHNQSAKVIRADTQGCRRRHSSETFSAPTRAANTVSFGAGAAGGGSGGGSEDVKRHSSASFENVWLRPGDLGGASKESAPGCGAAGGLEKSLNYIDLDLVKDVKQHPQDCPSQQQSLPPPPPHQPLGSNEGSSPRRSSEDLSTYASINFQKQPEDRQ

Test [1] has as its target insulin receptor β subunit (rat (endogenous in rat liver)) (UniProt P15127). In words: co-IP; liver extracts (1% Triton X-100, 100 mM Tris pH 7.4, 4°C) of young, old and exercised old rats (16 h after acute swimming); IP with anti-IRβ or anti-IRS-1, protein A-Sepharose, blot with anti-PTP1B.
Test [2] deals with insulin receptor substrate 1 (rat (endogenous in rat liver)) (UniProt P35570). Described as above.

Results are given in words; binding and its absence hold for the method and conditions named. Binding seen in cells or lysates may run through a third protein. Some binding calls cover weakened binding; strength is not graded here.

B1: protein-tyrosine phosphatase 1B (enzyme, UniProt P20417 1-432)
chain: MEMEKEFEQIDKAGNWAAIYQDIRHEASDFPCRIAKLPKNKNRNRYRDVSPFDHSRIKLHQEDNDYINASLIKMEEAQRSYILTQGPLPNTCGHFWEMVWEQKSRGVVMLNRIMEKGSLKCAQYWPQKEEKEMVFDDTNLKLTLISEDVKSYYTVRQLELENLATQEAREILHFHYTTWPDFGVPESPASFLNFLFKVRESGSLSPEHGPIVVHCSAGIGRSGTFCLADTCLLLMDKRKDPSSVDIKKVLLEMRRFRMGLIQTADQLRFSYLAVIEGAKFIMGDSSVQDQWKELSHEDLEPPPEHVPPPPRPPKRTLEPHNGKCKELFSNHQWVSEESCEDEDILAREESRAPSIAVHSMSSMSQDTEVRKRMVGGGLQSAQASVPTEEELSPTEEEQKAHRPVHWKPFLVNVCMATALATGAYLCYRVCFH
As to B1, the binding entry in test [1] and in test [2] was “binds” in each case.
